Read-outs that look alike come from different tables or passages of the source. Results are given in words; binding and its absence hold for the method and conditions named. In cells and extracts the contact can be indirect. These calls come from enrichment with a bait or labelling near it, and not all partners need be listed.
Columns and labels:
[1] = target: pyruvate kinase muscle 2 (PKM2), murine (mouse (endogenous in murine peritoneal macrophages)) (UniProt P52480); assay: affinity purification with mass spectrometry
[2] = target: pyruvate kinase muscle 2 (PKM2), murine (mouse (endogenous in murine peritoneal macrophages)) (UniProt P52480); assay: affinity purification with mass spectrometry; remark: listed apart in the source

Sequences of proteins named here, by UniProt entry; tags and fusion partners are left off. Residues count along the entry.
UniProt P52480: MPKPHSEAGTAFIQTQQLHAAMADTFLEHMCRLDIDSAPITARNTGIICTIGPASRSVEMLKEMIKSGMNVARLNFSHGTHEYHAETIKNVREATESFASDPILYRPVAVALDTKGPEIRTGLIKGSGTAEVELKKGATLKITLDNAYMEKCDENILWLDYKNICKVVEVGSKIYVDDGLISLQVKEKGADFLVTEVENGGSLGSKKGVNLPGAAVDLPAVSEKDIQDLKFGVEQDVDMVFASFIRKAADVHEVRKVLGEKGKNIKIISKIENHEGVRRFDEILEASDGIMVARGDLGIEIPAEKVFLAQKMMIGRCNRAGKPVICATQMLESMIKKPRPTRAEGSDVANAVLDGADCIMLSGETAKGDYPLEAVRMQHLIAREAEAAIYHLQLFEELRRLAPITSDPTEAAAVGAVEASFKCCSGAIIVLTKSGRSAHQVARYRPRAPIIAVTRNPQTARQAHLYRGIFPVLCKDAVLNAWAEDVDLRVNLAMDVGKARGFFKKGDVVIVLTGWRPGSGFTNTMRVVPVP
UniProt P38647, residues 47-679: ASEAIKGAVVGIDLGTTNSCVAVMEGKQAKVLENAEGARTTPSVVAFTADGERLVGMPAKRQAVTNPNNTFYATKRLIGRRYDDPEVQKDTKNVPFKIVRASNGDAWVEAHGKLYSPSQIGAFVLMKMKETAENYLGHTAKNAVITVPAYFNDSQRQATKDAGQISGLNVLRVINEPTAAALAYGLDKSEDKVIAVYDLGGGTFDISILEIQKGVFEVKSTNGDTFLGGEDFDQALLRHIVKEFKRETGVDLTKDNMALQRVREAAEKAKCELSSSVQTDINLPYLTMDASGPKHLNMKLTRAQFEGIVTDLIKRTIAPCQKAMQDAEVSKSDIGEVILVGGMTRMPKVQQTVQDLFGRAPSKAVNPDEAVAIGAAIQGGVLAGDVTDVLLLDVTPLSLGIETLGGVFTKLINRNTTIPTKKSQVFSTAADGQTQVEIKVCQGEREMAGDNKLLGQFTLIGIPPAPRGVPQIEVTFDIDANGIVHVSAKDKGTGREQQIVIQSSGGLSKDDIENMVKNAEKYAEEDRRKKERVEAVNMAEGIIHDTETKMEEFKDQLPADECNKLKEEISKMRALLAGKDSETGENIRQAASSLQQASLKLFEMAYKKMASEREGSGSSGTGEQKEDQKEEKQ

binding [1]	binding [2]	Molecule
binds	–	GRP75, murine (from UniProt P38647 47-679)
–	binds	UQCRC1, a subunit of ETC Complex III, murine (protein, UniProt Q9CZ13 35-480) TATFAQALQSVPETQVSILDNGLRVASEQSSHATCTVGVWIDAGSRYETEKNNGAGYFLEHLAFKGTKNRPGNALEKEVESIGAHLNAYSTREHTAYLIKALSKDLPKVVELLADIVQNSSLEDSQIEKERDVILREMQENDASMQNVVFDYLHATAFQGTPLAQAVEGPSENVRRLSRTDLTDYLNRHYKAPRMVLAAAGGVEHQQLLDLAQKHLSSVSRVYEEDAVPGLTPCRFTGSEIRHRDDALPLAHVAIAVEGPGWANPDNVTLQVANAIIGHYDCTYGGGVHLSSPLASVAVANKLCQSFQTFNISYSDTGLLGAHFVCDAMSIDDMVFFLQGQWMRLCTSATESEVTRGKNILRNALVSHLDGTTPVCEDIGRSLLTYGRRIPLAEWESRIQEVDAQMLRDICSKYFYDQCPAVAGYGPIEQLPDYNRIRSGMFWLRF
